This is one part of the list. For some assays here: At the low end of the ranking, values are background and their order means little.
What follows are sequences tested against T1, PUM1 PUF domain R3-THE R4-TFR R7-NPG C935T + R936H + Q939E + N971T + H972F + Q975R + S1079N + N1080P + E1083G (Homo sapiens) (UniProt Q14671). Settings: yeast three-hybrid, YBZ-1, SC-Leu-His + 0.5 mM 3-AT, 4 days.
T1 sequence: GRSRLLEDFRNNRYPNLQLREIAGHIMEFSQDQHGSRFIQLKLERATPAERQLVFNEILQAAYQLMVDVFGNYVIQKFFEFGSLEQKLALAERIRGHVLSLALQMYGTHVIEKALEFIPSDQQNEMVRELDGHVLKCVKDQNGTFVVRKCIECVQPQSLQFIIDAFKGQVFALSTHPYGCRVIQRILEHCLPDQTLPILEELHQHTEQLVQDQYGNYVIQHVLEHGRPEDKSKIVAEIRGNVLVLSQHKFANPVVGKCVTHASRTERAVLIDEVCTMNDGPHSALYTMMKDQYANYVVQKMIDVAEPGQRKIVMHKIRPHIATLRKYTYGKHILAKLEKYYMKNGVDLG

Row | Sequence | binding signal (log2 enrichment (interaction score))
1 | GGCUAGAACUAGUGGAUCCCCCGGCGCCCGGCGGCUCGAGCCCGGGUAAGUGGACAGAGUCUGCAUGCCGCCGGGCGCCAUGCCUGCAGGUCGACUCUAGAAAACAUG | -1.69
2 | GGCUAGAACUAGUGGAUCCCCCGGCGCCCGGCGGCUCGAGCCCGGGUAAGUUCCAGCAGUCUGCAUGCCGCCGGGCGCCAUGCCUGCAGGUCGACUCUAGAAAACAUG | < -1.18
3 | GGCUAGAACUAGUGGAUCCCCCGGCGCCCGGCGGCUCGAGCCCGGGUAAGUUAAAGACGUCUGCAUGCCGCCGGGCGCCAUGCCUGCAGGUCGACUCUAGAAAACAUG | -1.64
4 | GGCUAGAACUAGUGGAUCCCCCGGCGCCCGGCGGCUCGAGCCCGGGUAAGUUUAGAACGUCUGCAUGCCGCCGGGCGCCAUGCCUGCAGGUCGACUCUAGAAAACAUG | -1.51
5 | GGCUAGAACUAGUGGAUCCCCCGGCGCCCGGCGGCUCGAGCCCGGGUAAGAGUGAAUAGUCUGCAUGCCGCCGGGCGCCAUGCCUGCAGGUCGACUCUAGAAAACAUG | -0.81
6 | GGCUAGAACUAGUGGAUCCCCCGGCGCCCGGCGGCUCGAGCCCGGGUAAGCAGAUAUAGUCUGCAUGCCGCCGGGCGCCAUGCCUGCAGGUCGACUCUAGAAAACAUG | -1.71

Single entries from the entries so far.
Entry of GGCUAGAACUAGUGGAUCCCCCGGCGCCCGGCGGCUCGAGCCCGGGUAAGUUAAAGACGUCUGCAUGCCGCCGGGCGCCAUGCCUGCAGGUCGACUCUAGAAAACAUG under binding signal (log2 enrichment (interaction score)): -1.64
Entry of GGCUAGAACUAGUGGAUCCCCCGGCGCCCGGCGGCUCGAGCCCGGGUAAGAGUGAAUAGUCUGCAUGCCGCCGGGCGCCAUGCCUGCAGGUCGACUCUAGAAAACAUG under binding signal (log2 enrichment (interaction score)): -0.81

Each sequence was assayed against T2, PUM1 PUF domain R3-THE R4-TFR R7-NPG C935T + R936H + Q939E + N971T + H972F + Q975R + S1079N + N1080P + E1083G (UniProt Q14671). Settings: yeast three-hybrid, YBZ-1, SC-Leu-His + 0.5 mM 3-AT, 4 days.
T2 sequence: T1 sequence

Row | Sequence | binding signal (log2 enrichment (interaction score))
7 | GGCUAGAACUAGUGGAUCCCCCGGCGCCCGGCGGCUCGAGCCCGGGUAAGUGGUCGUAGUCUGCAUGCCGCCGGGCGCCAUGCCUGCAGGUCGACUCUAGAAAACAUG | -2.24
8 | GGCUAGAACUAGUGGAUCCCCCGGCGCCCGGCGGCUCGAGCCCGGGUAAGCUAGAUAAGUCUGCAUGCCGCCGGGCGCCAUGCCUGCAGGUCGACUCUAGAAAACAUG | -2.12
9 | GGCUAGAACUAGUGGAUCCCCCGGCGCCCGGCGGCUCGAGCCCGGGUAAGUUAAAUGAGUCUGCAUGCCGCCGGGCGCCAUGCCUGCAGGUCGACUCUAGAAAACAUG | < -2.43
10 | GGCUAGAACUAGUGGAUCCCCCGGCGCCCGGCGGCUCGAGCCCGGGUAAGUUUAAAACGUCUGCAUGCCGCCGGGCGCCAUGCCUGCAGGUCGACUCUAGAAAACAUG | -2.08
11 | GGCUAGAACUAGUGGAUCCCCCGGCGCCCGGCGGCUCGAGCCCGGGUAAGGUGACUUGGUCUGCAUGCCGCCGGGCGCCAUGCCUGCAGGUCGACUCUAGAAAACAUG | < -3.26

Source: publication PMC8384837
